Here are results for one molecule from article PMC12244087.

The experiment deals with T1, Cellular retinoic acid binding protein 2 (human (endogenous in NSCLC cells)) (UniProt P29373).
T1 sequence: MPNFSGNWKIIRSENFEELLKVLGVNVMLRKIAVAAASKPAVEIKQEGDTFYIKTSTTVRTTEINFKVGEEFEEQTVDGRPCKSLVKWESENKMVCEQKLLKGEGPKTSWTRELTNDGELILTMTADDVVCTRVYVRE
As to the kind of experiment: co-IP; endogenous proteins; cells lysed in IP lysis buffer with protease inhibitors; lysate pre-washed with protein A/G beads at 4°C for 4 h; immunoprecipitation with anti-CRABP2 or anti-PLAAT4 antibodies coupled to protein A/G at 4°C overnight; Western blot; IgG as negative control. (Immunoblotting shows a protein as a band on a membrane.)

No constants are given. Whether binding was seen depends on the method and setting. Binding seen in cells or lysates may run through a third protein. Some entries that bind do so weakly or less than the wild type.

B1: Phospholipase A/acyltransferase 4 (protein, UniProt Q9UL19 1-164)
chain: MASPHQEPKPGDLIEIFRLGYEHWALYIGDGYVIHLAPPSEYPGAGSSSVFSVLSNSAEVKRERLEDVVGGCCYRVNNSLDHEYQPRPVEVIISSAKEMVGQKMKYSIVSRNCEHFVTQLRYGKSRCKQVEKAKVEVGVATALGILVVAGCSFAIRRYQKKATA
On to B1, for which the binding result was “binds”.
